From PMC9557730
Results are given in words; binding and its absence hold for the method and conditions named. Binding seen in cells or lysates may run through a third protein. Tags and fused reporters may be left off the sequences shown.

Key:
Assay in all cases: co-IP; C-terminal 3x FLAG-tagged Tfb2 variants coexpressed with endogenous Tfb2 in yeast; whole-cell extract (50 mM Hepes pH 7.6, 250 mM KOAc) on FLAG-M2 agarose 2 h at 4 °C; eluted with triple FLAG peptide; Western blot for Ssl2, normalised to Tfb2
[1] = target: T1, Tfb2 E342R, C-terminal 3× FLAG-tagged (Saccharomyces cerevisiae) (UniProt Q02939)
T1 sequence: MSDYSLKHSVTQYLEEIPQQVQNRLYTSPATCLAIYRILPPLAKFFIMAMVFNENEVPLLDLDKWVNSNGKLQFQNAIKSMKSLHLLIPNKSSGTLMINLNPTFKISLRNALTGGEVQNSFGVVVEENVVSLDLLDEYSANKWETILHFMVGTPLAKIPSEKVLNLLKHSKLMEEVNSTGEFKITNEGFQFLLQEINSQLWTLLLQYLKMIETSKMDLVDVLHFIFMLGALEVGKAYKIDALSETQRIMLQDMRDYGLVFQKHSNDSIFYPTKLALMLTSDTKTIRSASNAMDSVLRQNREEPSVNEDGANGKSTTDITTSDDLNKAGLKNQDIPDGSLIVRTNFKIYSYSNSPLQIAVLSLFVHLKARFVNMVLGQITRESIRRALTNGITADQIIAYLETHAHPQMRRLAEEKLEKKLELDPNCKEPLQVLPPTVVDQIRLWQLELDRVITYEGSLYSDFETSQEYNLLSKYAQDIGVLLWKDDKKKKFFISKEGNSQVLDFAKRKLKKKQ

[2] = target: T2, Tfb2 RF369–370AA, C-terminal 3× FLAG-tagged (Saccharomyces cerevisiae) (UniProt Q02939)
T2 sequence: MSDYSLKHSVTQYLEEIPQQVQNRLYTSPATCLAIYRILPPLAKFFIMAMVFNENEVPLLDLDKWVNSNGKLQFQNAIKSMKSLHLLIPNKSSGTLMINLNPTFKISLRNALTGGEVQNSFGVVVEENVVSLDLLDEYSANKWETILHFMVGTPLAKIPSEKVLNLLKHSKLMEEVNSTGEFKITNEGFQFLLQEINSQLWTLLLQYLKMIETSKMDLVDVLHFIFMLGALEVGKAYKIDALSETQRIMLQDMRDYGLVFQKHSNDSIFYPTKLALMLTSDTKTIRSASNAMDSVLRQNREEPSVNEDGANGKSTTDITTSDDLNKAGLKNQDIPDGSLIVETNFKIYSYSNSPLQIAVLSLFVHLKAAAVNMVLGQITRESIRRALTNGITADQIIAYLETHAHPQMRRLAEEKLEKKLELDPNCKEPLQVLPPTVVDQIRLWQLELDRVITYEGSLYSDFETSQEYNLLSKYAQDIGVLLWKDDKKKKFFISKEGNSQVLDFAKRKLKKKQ

[3] = target: T3, Tfb2 YY348+350AA, C-terminal 3× FLAG-tagged (Saccharomyces cerevisiae) (UniProt Q02939)
T3 sequence: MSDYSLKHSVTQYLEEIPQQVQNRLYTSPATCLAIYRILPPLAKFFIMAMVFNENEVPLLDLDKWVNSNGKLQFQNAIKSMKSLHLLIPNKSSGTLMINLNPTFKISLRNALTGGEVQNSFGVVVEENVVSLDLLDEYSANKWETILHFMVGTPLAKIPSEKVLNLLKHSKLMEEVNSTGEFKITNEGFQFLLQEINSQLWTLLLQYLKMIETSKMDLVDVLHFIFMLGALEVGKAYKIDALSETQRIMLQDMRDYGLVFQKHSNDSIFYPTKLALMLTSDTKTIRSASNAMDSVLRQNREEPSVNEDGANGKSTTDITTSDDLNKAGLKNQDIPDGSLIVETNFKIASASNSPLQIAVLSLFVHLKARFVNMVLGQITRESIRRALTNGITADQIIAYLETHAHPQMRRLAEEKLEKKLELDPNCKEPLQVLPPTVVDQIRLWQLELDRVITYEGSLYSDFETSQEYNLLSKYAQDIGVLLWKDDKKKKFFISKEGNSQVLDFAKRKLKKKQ

Measured: binding

B1: Ssl2 (protein, UniProt Q00578 1-843)
chain: MTDVEGYQPKSKGKIFPDMGESFFSSDEDSPATDAEIDENYDDNRETSEGRGERDTGAMVTGLKKPRKKTKSSRHTAADSSMNQMDAKDKALLQDTNSDIPADFVPDSVSGMFRSHDFSYLRLRPDHASRPLWISPSDGRIILESFSPLAEQAQDFLVTIAEPISRPSHIHEYKITAYSLYAAVSVGLETDDIISVLDRLSKVPVAESIINFIKGATISYGKVKLVIKHNRYFVETTQADILQMLLNDSVIGPLRIDSDHQVQPPEDVLQQQLQQTAGKPATNVNPNDVEAVFSAVIGGDNEREEEDDDIDAVHSFEIANESVEVVKKRCQEIDYPVLEEYDFRNDHRNPDLDIDLKPSTQIRPYQEKSLSKMFGNGRARSGIIVLPCGAGKTLVGITAACTIKKSVIVLCTSSVSVMQWRQQFLQWCTLQPENCAVFTSDNKEMFQTESGLVVSTYSMVANTRNRSHDSQKVMDFLTGREWGFIILDEVHVVPAAMFRRVVSTIAAHAKLGLTATLVREDDKIGDLNFLIGPKLYEANWMELSQKGHIANVQCAEVWCPMTAEFYQEYLRETARKRMLLYIMNPTKFQACQFLIQYHERRGDKIIVFSDNVYALQEYALKMGKPFIYGSTPQQERMNILQNFQYNDQINTIFLSKVGDTSIDLPEATCLIQISSHYGSRRQEAQRLGRILRAKRRNDEGFNAFFYSLVSKDTQEMYYSTKRQAFLVDQGYAFKVITHLHGMENIPNLAYASPRERRELLQEVLLKNEEAAGIEVGDDADNSVGRGSNGHKRFKSKAVRGEGSLSGLAGGEDMAYMEYSTNKNKELKEHHPLIRKMYYKNLKK
no binding: [1] | [2] | [3]
